We go through one substance from article PMC13530250.

The chains behind the UniProt entries cited, without tags or fusion partners. Residues count along the entry.
UniProt Q02817, residues 21-5289: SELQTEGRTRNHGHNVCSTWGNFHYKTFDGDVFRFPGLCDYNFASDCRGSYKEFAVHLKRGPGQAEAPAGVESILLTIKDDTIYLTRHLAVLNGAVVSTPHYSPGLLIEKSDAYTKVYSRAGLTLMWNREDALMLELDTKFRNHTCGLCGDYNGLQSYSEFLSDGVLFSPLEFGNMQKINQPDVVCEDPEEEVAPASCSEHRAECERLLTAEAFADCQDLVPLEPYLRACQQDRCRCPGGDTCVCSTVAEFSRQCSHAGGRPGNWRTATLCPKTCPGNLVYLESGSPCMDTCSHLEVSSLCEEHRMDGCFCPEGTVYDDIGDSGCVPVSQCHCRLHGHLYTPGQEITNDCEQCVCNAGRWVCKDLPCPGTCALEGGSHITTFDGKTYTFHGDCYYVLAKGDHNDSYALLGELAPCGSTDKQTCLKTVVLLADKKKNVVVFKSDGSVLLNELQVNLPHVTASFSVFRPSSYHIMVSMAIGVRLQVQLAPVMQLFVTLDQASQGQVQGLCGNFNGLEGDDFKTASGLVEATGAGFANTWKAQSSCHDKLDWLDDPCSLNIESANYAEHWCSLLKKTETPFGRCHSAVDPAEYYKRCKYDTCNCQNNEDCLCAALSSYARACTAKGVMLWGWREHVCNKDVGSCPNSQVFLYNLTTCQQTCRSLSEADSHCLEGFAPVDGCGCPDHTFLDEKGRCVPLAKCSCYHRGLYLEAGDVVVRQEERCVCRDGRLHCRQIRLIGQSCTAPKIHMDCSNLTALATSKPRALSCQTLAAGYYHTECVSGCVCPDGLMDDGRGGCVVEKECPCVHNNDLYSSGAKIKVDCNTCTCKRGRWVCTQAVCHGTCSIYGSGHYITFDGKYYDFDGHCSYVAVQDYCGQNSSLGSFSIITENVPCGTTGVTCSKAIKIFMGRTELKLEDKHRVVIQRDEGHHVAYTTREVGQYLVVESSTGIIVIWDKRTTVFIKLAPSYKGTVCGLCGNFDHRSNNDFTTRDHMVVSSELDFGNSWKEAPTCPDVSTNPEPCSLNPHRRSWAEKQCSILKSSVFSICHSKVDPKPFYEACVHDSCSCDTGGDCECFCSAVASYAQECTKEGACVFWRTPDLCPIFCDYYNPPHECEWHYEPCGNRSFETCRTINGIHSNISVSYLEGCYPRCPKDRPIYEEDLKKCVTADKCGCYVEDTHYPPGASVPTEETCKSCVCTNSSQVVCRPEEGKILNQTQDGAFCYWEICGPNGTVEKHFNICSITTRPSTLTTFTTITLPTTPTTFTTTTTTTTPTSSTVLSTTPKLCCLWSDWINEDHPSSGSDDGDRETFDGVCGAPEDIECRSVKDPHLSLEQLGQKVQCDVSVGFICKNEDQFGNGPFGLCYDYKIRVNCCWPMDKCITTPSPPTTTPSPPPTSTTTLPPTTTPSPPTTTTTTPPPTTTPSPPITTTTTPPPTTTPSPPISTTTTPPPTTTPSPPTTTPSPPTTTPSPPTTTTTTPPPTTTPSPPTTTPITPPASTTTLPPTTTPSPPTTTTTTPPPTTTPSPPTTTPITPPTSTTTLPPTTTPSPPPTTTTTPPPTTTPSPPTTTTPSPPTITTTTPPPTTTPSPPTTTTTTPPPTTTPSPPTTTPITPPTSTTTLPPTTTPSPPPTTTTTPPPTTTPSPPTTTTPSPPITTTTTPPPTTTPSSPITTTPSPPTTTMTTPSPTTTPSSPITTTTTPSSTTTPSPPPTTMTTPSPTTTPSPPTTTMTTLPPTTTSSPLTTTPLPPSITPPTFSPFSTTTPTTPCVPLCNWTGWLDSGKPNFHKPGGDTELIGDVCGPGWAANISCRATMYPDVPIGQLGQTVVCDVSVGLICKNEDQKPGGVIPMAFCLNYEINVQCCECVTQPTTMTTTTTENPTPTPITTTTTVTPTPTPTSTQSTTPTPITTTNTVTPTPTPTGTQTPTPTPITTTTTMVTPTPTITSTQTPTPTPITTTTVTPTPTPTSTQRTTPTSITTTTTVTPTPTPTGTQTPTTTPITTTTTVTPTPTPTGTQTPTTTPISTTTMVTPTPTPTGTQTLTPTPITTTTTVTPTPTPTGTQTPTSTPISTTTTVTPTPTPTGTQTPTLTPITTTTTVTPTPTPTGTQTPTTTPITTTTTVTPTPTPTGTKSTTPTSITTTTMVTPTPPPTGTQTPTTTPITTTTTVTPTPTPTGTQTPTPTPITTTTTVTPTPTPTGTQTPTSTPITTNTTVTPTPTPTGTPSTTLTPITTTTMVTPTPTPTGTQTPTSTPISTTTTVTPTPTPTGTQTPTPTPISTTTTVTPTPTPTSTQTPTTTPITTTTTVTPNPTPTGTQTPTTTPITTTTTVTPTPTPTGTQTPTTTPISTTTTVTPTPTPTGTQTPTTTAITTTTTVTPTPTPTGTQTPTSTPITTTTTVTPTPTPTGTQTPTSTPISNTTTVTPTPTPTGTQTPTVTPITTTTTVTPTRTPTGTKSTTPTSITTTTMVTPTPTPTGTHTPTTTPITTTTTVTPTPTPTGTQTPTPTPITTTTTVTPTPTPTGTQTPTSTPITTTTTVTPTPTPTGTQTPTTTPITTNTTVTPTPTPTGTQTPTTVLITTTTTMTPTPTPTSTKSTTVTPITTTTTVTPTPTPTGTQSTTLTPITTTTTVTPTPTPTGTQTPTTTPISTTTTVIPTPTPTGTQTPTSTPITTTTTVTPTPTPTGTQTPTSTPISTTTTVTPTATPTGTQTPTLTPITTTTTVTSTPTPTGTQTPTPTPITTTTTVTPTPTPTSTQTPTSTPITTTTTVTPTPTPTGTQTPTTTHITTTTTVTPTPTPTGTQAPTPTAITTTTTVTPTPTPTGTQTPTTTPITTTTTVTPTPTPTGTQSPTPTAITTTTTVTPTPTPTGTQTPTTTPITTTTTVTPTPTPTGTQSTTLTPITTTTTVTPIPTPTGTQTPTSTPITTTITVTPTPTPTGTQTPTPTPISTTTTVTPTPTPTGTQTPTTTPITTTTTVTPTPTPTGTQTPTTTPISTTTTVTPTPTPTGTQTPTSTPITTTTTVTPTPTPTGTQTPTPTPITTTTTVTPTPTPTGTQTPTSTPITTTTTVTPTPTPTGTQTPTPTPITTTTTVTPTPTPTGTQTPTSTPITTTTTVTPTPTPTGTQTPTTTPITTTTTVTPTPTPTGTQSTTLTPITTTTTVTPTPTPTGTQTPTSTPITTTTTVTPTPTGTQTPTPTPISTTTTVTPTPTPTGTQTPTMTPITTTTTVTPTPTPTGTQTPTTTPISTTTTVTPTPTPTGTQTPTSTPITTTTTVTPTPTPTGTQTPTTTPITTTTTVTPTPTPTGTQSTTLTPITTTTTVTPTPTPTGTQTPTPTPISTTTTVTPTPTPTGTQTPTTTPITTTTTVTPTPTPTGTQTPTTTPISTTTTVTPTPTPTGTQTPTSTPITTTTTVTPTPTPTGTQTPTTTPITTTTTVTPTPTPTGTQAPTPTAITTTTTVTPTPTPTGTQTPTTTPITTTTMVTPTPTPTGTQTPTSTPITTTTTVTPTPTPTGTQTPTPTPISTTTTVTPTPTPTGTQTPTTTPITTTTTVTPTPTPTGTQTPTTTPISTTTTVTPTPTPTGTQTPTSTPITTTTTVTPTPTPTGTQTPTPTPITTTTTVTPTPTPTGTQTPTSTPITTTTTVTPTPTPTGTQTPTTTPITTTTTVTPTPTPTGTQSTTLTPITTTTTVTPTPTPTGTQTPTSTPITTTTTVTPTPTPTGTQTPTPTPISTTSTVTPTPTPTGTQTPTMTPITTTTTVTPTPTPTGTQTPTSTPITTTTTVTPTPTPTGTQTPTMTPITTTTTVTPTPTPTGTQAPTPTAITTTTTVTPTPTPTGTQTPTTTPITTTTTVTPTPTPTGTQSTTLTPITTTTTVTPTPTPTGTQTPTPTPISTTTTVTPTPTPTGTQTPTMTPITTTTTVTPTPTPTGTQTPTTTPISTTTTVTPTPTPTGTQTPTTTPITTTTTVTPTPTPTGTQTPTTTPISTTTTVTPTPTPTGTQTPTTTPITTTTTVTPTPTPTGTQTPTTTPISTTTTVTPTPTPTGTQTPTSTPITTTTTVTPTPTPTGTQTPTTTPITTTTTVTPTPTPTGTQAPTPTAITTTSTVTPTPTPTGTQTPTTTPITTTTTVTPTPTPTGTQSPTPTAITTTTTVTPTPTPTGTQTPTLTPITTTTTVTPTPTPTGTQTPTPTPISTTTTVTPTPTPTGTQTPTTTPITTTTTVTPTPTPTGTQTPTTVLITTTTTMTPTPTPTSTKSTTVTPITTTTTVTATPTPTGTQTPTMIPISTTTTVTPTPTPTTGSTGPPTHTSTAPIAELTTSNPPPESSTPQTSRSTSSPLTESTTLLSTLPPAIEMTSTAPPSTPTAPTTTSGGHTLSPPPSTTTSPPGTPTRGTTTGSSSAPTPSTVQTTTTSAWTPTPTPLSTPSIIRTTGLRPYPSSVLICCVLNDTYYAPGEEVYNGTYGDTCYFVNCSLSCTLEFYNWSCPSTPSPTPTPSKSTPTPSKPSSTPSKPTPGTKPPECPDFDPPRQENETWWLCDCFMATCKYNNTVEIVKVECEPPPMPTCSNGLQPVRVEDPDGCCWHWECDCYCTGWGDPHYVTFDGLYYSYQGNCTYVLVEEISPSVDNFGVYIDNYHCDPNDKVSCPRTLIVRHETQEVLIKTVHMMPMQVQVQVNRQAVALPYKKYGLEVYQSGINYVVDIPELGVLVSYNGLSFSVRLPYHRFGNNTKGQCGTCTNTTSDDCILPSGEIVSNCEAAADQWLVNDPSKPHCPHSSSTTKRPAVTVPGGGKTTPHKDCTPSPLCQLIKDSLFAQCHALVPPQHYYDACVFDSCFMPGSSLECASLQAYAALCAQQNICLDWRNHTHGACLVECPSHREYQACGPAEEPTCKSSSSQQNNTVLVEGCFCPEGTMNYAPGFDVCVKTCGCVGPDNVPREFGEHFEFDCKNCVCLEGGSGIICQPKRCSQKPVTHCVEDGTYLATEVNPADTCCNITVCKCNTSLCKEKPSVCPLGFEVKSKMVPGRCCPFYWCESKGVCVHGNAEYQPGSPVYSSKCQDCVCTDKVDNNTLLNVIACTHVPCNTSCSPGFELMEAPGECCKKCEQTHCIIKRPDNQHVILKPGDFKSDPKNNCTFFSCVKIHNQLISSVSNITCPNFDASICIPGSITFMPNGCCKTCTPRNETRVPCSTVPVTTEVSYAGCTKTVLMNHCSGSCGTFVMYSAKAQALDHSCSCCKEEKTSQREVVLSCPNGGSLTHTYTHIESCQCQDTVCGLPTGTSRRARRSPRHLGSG

The target in the assay is T1, B3GNT6-Flag (UniProt Q6ZMB0).
T1 sequence: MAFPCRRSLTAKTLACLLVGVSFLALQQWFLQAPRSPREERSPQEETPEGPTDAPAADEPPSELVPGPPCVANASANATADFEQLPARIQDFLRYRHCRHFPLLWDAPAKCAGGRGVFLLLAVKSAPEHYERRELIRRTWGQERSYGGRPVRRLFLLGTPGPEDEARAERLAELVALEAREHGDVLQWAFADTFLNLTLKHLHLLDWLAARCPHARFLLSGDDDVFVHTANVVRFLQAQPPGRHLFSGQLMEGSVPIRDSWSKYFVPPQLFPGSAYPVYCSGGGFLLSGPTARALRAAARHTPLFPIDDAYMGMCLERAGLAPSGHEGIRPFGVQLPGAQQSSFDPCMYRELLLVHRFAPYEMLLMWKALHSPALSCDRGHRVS
Briefly: co-IP; LOVO cells transfected with pcDNA3.1-B3GNT6-Flag; lysates incubated with anti-Flag magnetic beads or specific antibodies on Protein A/G magnetic beads; IgG control; Western blot. On the technique in general: Immunoblotting shows a protein as a band on a membrane.

Results are given in words; binding and its absence hold for the method and conditions named. Binding seen in cells or lysates may run through a third protein. Some entries that bind do so weakly or less than the wild type. Sequences can lack the tags named with a protein.

As for MUC2 (from UniProt Q02817 21-5289), the binding entry is “binds”.
